Data published in publication PMC12446476 (Nature Communications, 2025).
Further values from the same series stand in other lists.

Tested on: N. gonorrhoeae
Assay: In vitro time-kill assay
Assay type: cell-based, Neisseria gonorrhoeae
Source text: The 2024 WHO N. gonorrhoeae reference strains were used for quality control. Only whole MIC doubling dilutions are reported. Clinical breakpoints or the epidemiological cutoff (ECOFF, to indicate azithromycin resistance) from EUCAST (v14.0, https://www.eucast.org/clinical_breakpoints) were used to classify isolates as antimicrobial susceptible or resistant. […] Two times the standard inoculum defined by CLSI was used to establish consistent growth in untreated control samples for some strains. In vitro time-kill assays were performed according to CLSI guidelines[65] using Columbia Broth (BD Difco) supplemented with 1% IsoVitaleX Enrichment (BD). Viable bacterial counts were generated by plating 10-fold serially diluted samples on GC agar plates containing 1% IsoVitaleX Enrichment (BD).

Cc1c(CN(C)C(=O)/C=C/c2cnc3c(c2)N[C@H](C)[C@H](O)C(=O)N3)oc2ccccc12 [Debio 1453]
Log10CFU/ml (time kill) (WHO X, 2X MIC, 3 hr): 4.83 Log10CFU/ml | Log10CFU/ml (time kill) (WHO X, 2X MIC, 6 hr): 3.41 Log10CFU/ml | Log10CFU/ml (time kill) (WHO X, 2X MIC, 10 hr): 2.30 Log10CFU/ml | Log10CFU/ml (time kill) (WHO X, 2X MIC, 24 hr): 1.95 Log10CFU/ml | Log10CFU/ml (time kill) (WHO X, 4X MIC, 0 hr): 5.84 Log10CFU/ml | Log10CFU/ml (time kill) (WHO X, 4X MIC, 1 hr): 5.60 Log10CFU/ml | Log10CFU/ml (time kill) (WHO X, 4X MIC, 3 hr): 4.00 Log10CFU/ml | Log10CFU/ml (time kill) (WHO X, 4X MIC, 6 hr): 1.95 Log10CFU/ml | Log10CFU/ml (time kill) (WHO X, 4X MIC, 10 hr): 1.95 Log10CFU/ml | Log10CFU/ml (time kill) (WHO X, 4X MIC, 24 hr): 1.95 Log10CFU/ml | Log10CFU/ml (time kill) (WHO X, 8X MIC, 0 hr): 6.02 Log10CFU/ml | Log10CFU/ml (time kill) (WHO X, 8X MIC, 1 hr): 5.38 Log10CFU/ml | Log10CFU/ml (time kill) (WHO X, 8X MIC, 3 hr): 4.18 Log10CFU/ml | Log10CFU/ml (time kill) (WHO X, 8X MIC, 6 hr): 1.95 Log10CFU/ml | Log10CFU/ml (time kill) (WHO X, 8X MIC, 10 hr): 1.95 Log10CFU/ml | Log10CFU/ml (time kill) (WHO X, 8X MIC, 24 hr): 1.95 Log10CFU/ml | Log10CFU/ml (time kill) (WHO X, 16X MIC, 0 hr): 5.84 Log10CFU/ml | Log10CFU/ml (time kill) (WHO X, 16X MIC, 1 hr): 5.53 Log10CFU/ml | Log10CFU/ml (time kill) (WHO X, 16X MIC, 3 hr): 4.68 Log10CFU/ml | Log10CFU/ml (time kill) (WHO X, 16X MIC, 6 hr): 2.00 Log10CFU/ml | Log10CFU/ml (time kill) (WHO X, 16X MIC, 10 hr): 1.95 Log10CFU/ml | Log10CFU/ml (time kill) (WHO X, 16X MIC, 24 hr): 1.95 Log10CFU/ml | Log10CFU/ml (time kill) (WHO Y, 2X MIC, 0 hr): 5.53 Log10CFU/ml | Log10CFU/ml (time kill) (WHO Y, 2X MIC, 1 hr): 5.54 Log10CFU/ml | Log10CFU/ml (time kill) (WHO Y, 2X MIC, 3 hr): 4.30 Log10CFU/ml | Log10CFU/ml (time kill) (WHO Y, 2X MIC, 6 hr): 3.26 Log10CFU/ml | Log10CFU/ml (time kill) (WHO Y, 2X MIC, 10 hr): 1.95 Log10CFU/ml | Log10CFU/ml (time kill) (WHO Y, 2X MIC, 24 hr): 1.95 Log10CFU/ml | Log10CFU/ml (time kill) (WHO Y, 4X MIC, 0 hr): 5.59 Log10CFU/ml | Log10CFU/ml (time kill) (WHO Y, 4X MIC, 1 hr): 4.00 Log10CFU/ml | Log10CFU/ml (time kill) (WHO Y, 4X MIC, 3 hr): 3.61 Log10CFU/ml | Log10CFU/ml (time kill) (WHO Y, 4X MIC, 6 hr): 1.95 Log10CFU/ml | Log10CFU/ml (time kill) (WHO Y, 4X MIC, 10 hr): 1.95 Log10CFU/ml | Log10CFU/ml (time kill) (WHO Y, 4X MIC, 24 hr): 1.95 Log10CFU/ml | Log10CFU/ml (time kill) (WHO Y, 8X MIC, 0 hr): 5.53 Log10CFU/ml | Log10CFU/ml (time kill) (WHO Y, 8X MIC, 1 hr): 4.30 Log10CFU/ml | Log10CFU/ml (time kill) (WHO Y, 8X MIC, 3 hr): 3.32 Log10CFU/ml | Log10CFU/ml (time kill) (WHO Y, 8X MIC, 6 hr): 2.00 Log10CFU/ml | Log10CFU/ml (time kill) (WHO Y, 8X MIC, 10 hr): 1.95 Log10CFU/ml | Log10CFU/ml (time kill) (WHO Y, 8X MIC, 24 hr): 1.95 Log10CFU/ml | Log10CFU/ml (time kill) (WHO Y, 16X MIC, 0 hr): 5.66 Log10CFU/ml | Log10CFU/ml (time kill) (WHO Y, 16X MIC, 1 hr): 4.60 Log10CFU/ml | Log10CFU/ml (time kill) (WHO Y, 16X MIC, 3 hr): 3.56 Log10CFU/ml | Log10CFU/ml (time kill) (WHO Y, 16X MIC, 6 hr): 1.95 Log10CFU/ml | Log10CFU/ml (time kill) (WHO Y, 16X MIC, 10 hr): 1.95 Log10CFU/ml | Log10CFU/ml (time kill) (WHO Y, 16X MIC, 24 hr): 1.95 Log10CFU/ml | Log10CFU/ml (time kill) (WHO Z, 2X MIC, 0 hr): 5.84 Log10CFU/ml | Log10CFU/ml (time kill) (WHO Z, 2X MIC, 1 hr): 5.75 Log10CFU/ml | Log10CFU/ml (time kill) (WHO Z, 2X MIC, 3 hr): 4.96 Log10CFU/ml | Log10CFU/ml (time kill) (WHO Z, 2X MIC, 6 hr): 4.16 Log10CFU/ml | Log10CFU/ml (time kill) (WHO Z, 2X MIC, 10 hr): 3.11 Log10CFU/ml | Log10CFU/ml (time kill) (WHO Z, 2X MIC, 24 hr): 1.95 Log10CFU/ml | Log10CFU/ml (time kill) (WHO Z, 4X MIC, 0 hr): 5.92 Log10CFU/ml | Log10CFU/ml (time kill) (WHO Z, 4X MIC, 1 hr): 5.60 Log10CFU/ml | Log10CFU/ml (time kill) (WHO Z, 4X MIC, 3 hr): 4.14 Log10CFU/ml | Log10CFU/ml (time kill) (WHO Z, 4X MIC, 6 hr): 2.48 Log10CFU/ml | Log10CFU/ml (time kill) (WHO Z, 4X MIC, 10 hr): 2.00 Log10CFU/ml | Log10CFU/ml (time kill) (WHO Z, 4X MIC, 24 hr): 1.95 Log10CFU/ml | Log10CFU/ml (time kill) (WHO Z, 8X MIC, 0 hr): 5.91 Log10CFU/ml | Log10CFU/ml (time kill) (WHO Z, 8X MIC, 1 hr): 5.49 Log10CFU/ml | Log10CFU/ml (time kill) (WHO Z, 8X MIC, 3 hr): 3.34 Log10CFU/ml | Log10CFU/ml (time kill) (WHO Z, 8X MIC, 6 hr): 2.60 Log10CFU/ml | Log10CFU/ml (time kill) (WHO Z, 8X MIC, 10 hr): 1.95 Log10CFU/ml | Log10CFU/ml (time kill) (WHO Z, 8X MIC, 24 hr): 1.95 Log10CFU/ml | Log10CFU/ml (time kill) (WHO Z, 16X MIC, 0 hr): 5.97 Log10CFU/ml | Log10CFU/ml (time kill) (WHO Z, 16X MIC, 1 hr): 5.43 Log10CFU/ml | Log10CFU/ml (time kill) (WHO Z, 16X MIC, 3 hr): 3.11 Log10CFU/ml | Log10CFU/ml (time kill) (WHO Z, 16X MIC, 6 hr): 2.48 Log10CFU/ml | Log10CFU/ml (time kill) (WHO Z, 16X MIC, 10 hr): 1.95 Log10CFU/ml | Log10CFU/ml (time kill) (WHO Z, 16X MIC, 24 hr): 1.95 Log10CFU/ml
